Earlier results in patent US20130195925A1, “ANTI AGING APPLICATION AND METHOD FOR TREATING AGING” (VASKIN, LLC, priority 2011, published 2013).
For at least one compound, name, drawing or mass did not settle the structure.

System: forehead lines and periorbital fine wrinkles
Settings: 3% facial gel applied daily for 16 weeks

Compound: CN(C)CCO [DMAE, Dimethylaminoethanol]
- mitigation of forehead lines and periorbital fine wrinkles, lip shape and fullness, overall appearance of aging skin: safe and efficacious
